PubChem BioAssay AID743121 – NCATS | 2013
Purpose: 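Genes whose silencing strengthens cell killing by camptothecin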 (primary screen). Cells: MDA-MB-231 cells, a human breast cancer line. Reagents: single siRNA against human genes, 20 nM siRNA (0.8 pmol per well). Timing: 120 h (drug added 48 h after transfection, read 72 h later). Conditions: camptothecin 20 nM (about EC30) for 72 h; vehicle 0.1% DMSO in parallel plates. Measurement: 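CellTiter-Glo ATP signal, scaled to control siRNA as percent viability; sensitisation given as log2 of untreated divided by camptothecin-treated viability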. Direction: log2 vehicle/camptothecin viability: higher = stronger sensitisation to camptothecin; viability with camptothecin and viability without drug: higher = more viable cells. Hit rule: 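Active genes have an RSA gene-level p-value below 0.001, computed from the ratios of their separate siRNAs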.
In all, the deposit lists about 26,000 reagents; shown is an unselected part. Of all reagents, 167 (0.63%) got an active call. 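Calls are per gene from RSA p-values that are not deposited; an individual active-marked siRNA can sensitise only weakly.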 The numbers tell different reagents against one gene apart.

target gene	reagent no.	log2 vehicle/camptothecin viability	viability with camptothecin (% of control)	viability without drug (% of control)	Outcome
TXNRD2 (GeneID 10587)	1	-0.0507	96.6	93.3	inactive
TXNRD2 (GeneID 10587)	2	-0.0267	101	99.1	inactive
TXNRD2 (GeneID 10587)	3	-0.269	98.3	81.5	inactive
TXNRD2 (GeneID 10587)	4	-0.477	51.7	37.1	inactive
GDPD3 (GeneID 79153)	1	-0.0794	91.4	86.5	inactive
GDPD3 (GeneID 79153)	2	-0.124	64.7	59.4	inactive
GDPD3 (GeneID 79153)	3	0.158	80.3	89.6	inactive
GDPD3 (GeneID 79153)	4	-0.188	119	104	inactive
MS4A8 (GeneID 83661)	1	-0.531	20.9	14.5	inactive
MS4A8 (GeneID 83661)	2	-0.0403	75.6	73.5	inactive
MS4A8 (GeneID 83661)	3	0.082	66.5	70.4	inactive
MS4A8 (GeneID 83661)	4	-0.305	124	100	inactive
NXN (GeneID 64359)	1	-0.429	40.4	30	inactive
NXN (GeneID 64359)	2	0.103	46.8	50.3	inactive
NXN (GeneID 64359)	3	-0.512	84.2	59.1	inactive
PARP3 (GeneID 10039)	1	-0.293	95.2	77.7	inactive
PARP3 (GeneID 10039)	2	-0.147	64.7	58.4	inactive
PARP3 (GeneID 10039)	3	-0.234	73.8	62.8	inactive
PARP3 (GeneID 10039)	4	0.216	42.7	49.6	inactive
CLEC2D (GeneID 29121)	1	-0.448	62.8	46.1	inactive
CLEC2D (GeneID 29121)	2	-0.111	81.3	75.3	inactive
CLEC2D (GeneID 29121)	3	-0.077	91.1	86.4	inactive
CLEC2D (GeneID 29121)	4	-0.0488	55.5	53.6	inactive
CYC1 (GeneID 1537)	1	0.159	27.7	31	inactive
CYC1 (GeneID 1537)	2	-0.176	85.4	75.6	inactive
CYC1 (GeneID 1537)	3	-0.391	88.2	67.3	inactive
CYC1 (GeneID 1537)	4	0.0237	45.1	45.9	inactive
TNF (GeneID 7124)	1	-0.577	68.4	45.9	inactive
TNF (GeneID 7124)	2	-0.434	82.2	60.9	inactive
TNF (GeneID 7124)	3	-0.108	112	104	inactive
TNF (GeneID 7124)	4	-0.137	113	103	inactive
FDFT1 (GeneID 2222)	1	-0.501	69.8	49.3	inactive
FDFT1 (GeneID 2222)	2	-0.0168	71	70.1	inactive
FDFT1 (GeneID 2222)	3	0.311	47.5	58.9	inactive
KIF18B (GeneID 146909)	1	-0.143	83.9	76	inactive
KIF18B (GeneID 146909)	2	-0.64	31.7	20.3	inactive
KIF18B (GeneID 146909)	3	-0.0858	80.5	75.8	inactive
RXRB (GeneID 6257)	1	-0.232	59.9	51	inactive
RXRB (GeneID 6257)	2	-0.117	104	95.6	inactive
RXRB (GeneID 6257)	3	-0.287	94.3	77.3	inactive
RXRB (GeneID 6257)	4	0.172	65.9	74.2	inactive
NPC1 (GeneID 4864)	1	-0.154	103	93	inactive
NPC1 (GeneID 4864)	2	-0.174	50.4	44.7	inactive
NPC1 (GeneID 4864)	3	-0.35	82.3	64.6	inactive
NPC1 (GeneID 4864)	4	-0.331	103	81.6	inactive
CACNB1 (GeneID 782)	1	-0.161	90.5	80.9	inactive
CACNB1 (GeneID 782)	2	1.26	16.7	39.9	inactive
CACNB1 (GeneID 782)	3	0.736	46.9	78	inactive
CACNB1 (GeneID 782)	4	0.0271	89.9	91.6	inactive
GSS (GeneID 2937)	1	0.0969	95.3	102	inactive
GSS (GeneID 2937)	2	-0.124	83.4	76.5	inactive
GSS (GeneID 2937)	3	-0.164	92.6	82.6	inactive
TGFBRAP1 (GeneID 9392)	1	-0.214	81.8	70.5	inactive
TGFBRAP1 (GeneID 9392)	2	0.116	42	45.5	inactive
TGFBRAP1 (GeneID 9392)	3	-0.248	132	111	inactive
TGFBRAP1 (GeneID 9392)	4	-0.161	104	93.4	inactive
DTX4 (GeneID 23220)	1	0.434	32.3	43.7	inactive
DTX4 (GeneID 23220)	2	-0.36	95.9	74.7	inactive
DTX4 (GeneID 23220)	3	0.0903	29.4	31.3	inactive
DTX4 (GeneID 23220)	4	0.938	16.4	31.5	inactive
FLT1 (GeneID 2321)	1	-0.019	88	86.8	inactive
FLT1 (GeneID 2321)	2	-0.173	51.5	45.6	inactive
FLT1 (GeneID 2321)	3	-0.5	90.1	63.7	inactive
FLT1 (GeneID 2321)	4	-0.17	98.1	87.2	inactive
ADRA1A (GeneID 148)	1	0.0511	90.7	94	inactive
ADRA1A (GeneID 148)	2	0.122	81.7	88.9	inactive
ADRA1A (GeneID 148)	3	-0.302	97.7	79.3	inactive
ADRA1A (GeneID 148)	4	0.308	57.5	71.2	inactive

Part of the list above, limited to “viability without drug (% of control)”.
TNF (GeneID 7124) #1: 45.9
TNF (GeneID 7124) #2: 60.9
TNF (GeneID 7124) #3: 104
TNF (GeneID 7124) #4: 103
FDFT1 (GeneID 2222) #1: 49.3
FDFT1 (GeneID 2222) #2: 70.1
